Experimental data: PubChem BioAssay AID1259405 (NCATS, 2018)
Shown is a random part of about 50,000 reagents tested. About 4,000 of them (8%) were called active. 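Mouse siRNA library applied to hamster cells; one well for each siRNA.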 The numbers tell different reagents against one gene apart.

Test: 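Knock-downs that lift recombinant protein yield in hamster ovary cells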 (primary screen)
Cells: Chinese hamster CHO-K1 ovary cells with stable secreted eGFP expression
Reagent: single siRNA against mouse genes, 0.8 pmol siRNA per well (2 µl of 400 nM stock)
Timing: 3 days
Read-out: 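Percent of the per-plate non-targeting control median for intracellular GFP per well by laser scanning cytometry and for cell viability by ATP luminescence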
Scale: GFP, % of control: higher = more GFP per well, higher productivity; viability (ATP), % of control: higher = more viable cells (more ATP)
Active means: 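a knock-down is called active if GFP reaches 120% or more of non-targeting control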

{"target gene": "Mboat2", "reagent": 1, "GFP, % of control": 161, "viability (ATP), % of control": 122, "call": "active"}
{"target gene": "Mboat2", "reagent": 2, "GFP, % of control": 57.4, "viability (ATP), % of control": 72.9, "call": "inactive"}
{"target gene": "Mboat2", "reagent": 3, "GFP, % of control": 67.8, "viability (ATP), % of control": 67.8, "call": "inactive"}
{"target gene": "Cdc50b", "reagent": 1, "GFP, % of control": 85.6, "viability (ATP), % of control": 78.7, "call": "inactive"}
{"target gene": "Cdc50b", "reagent": 2, "GFP, % of control": 60.6, "viability (ATP), % of control": 93.9, "call": "inactive"}
{"target gene": "Cdc50b", "reagent": 3, "GFP, % of control": 23.6, "viability (ATP), % of control": 117, "call": "inactive"}
{"target gene": "Fnta", "reagent": 1, "GFP, % of control": 83.9, "viability (ATP), % of control": 78.6, "call": "inactive"}
{"target gene": "Fnta", "reagent": 2, "GFP, % of control": 74.8, "viability (ATP), % of control": 76, "call": "inactive"}
{"target gene": "Fnta", "reagent": 3, "GFP, % of control": 45.7, "viability (ATP), % of control": 36.6, "call": "inactive"}
{"target gene": "Brs3", "reagent": 1, "GFP, % of control": 49.6, "viability (ATP), % of control": 50.6, "call": "inactive"}
{"target gene": "Brs3", "reagent": 2, "GFP, % of control": 45.5, "viability (ATP), % of control": 60.8, "call": "inactive"}
{"target gene": "Brs3", "reagent": 3, "GFP, % of control": 58.7, "viability (ATP), % of control": 38.1, "call": "inactive"}
{"target gene": "Pced1b", "reagent": 1, "GFP, % of control": 72.7, "viability (ATP), % of control": 77.2, "call": "inactive"}
{"target gene": "Pced1b", "reagent": 2, "GFP, % of control": 85.7, "viability (ATP), % of control": 48.3, "call": "inactive"}
{"target gene": "Pced1b", "reagent": 3, "GFP, % of control": 124, "viability (ATP), % of control": 59.7, "call": "active"}
{"target gene": "Idi1", "reagent": 1, "GFP, % of control": 88.6, "viability (ATP), % of control": 79.4, "call": "inactive"}
{"target gene": "Idi1", "reagent": 2, "GFP, % of control": 71, "viability (ATP), % of control": 66.6, "call": "inactive"}
{"target gene": "Idi1", "reagent": 3, "GFP, % of control": 76.7, "viability (ATP), % of control": 82.4, "call": "inactive"}
{"target gene": "Vmn2r-ps11", "reagent": 1, "GFP, % of control": 73, "viability (ATP), % of control": 89.8, "call": "inactive"}
{"target gene": "Vmn2r-ps11", "reagent": 2, "GFP, % of control": 95.2, "viability (ATP), % of control": 88.8, "call": "inactive"}
{"target gene": "Vmn2r-ps11", "reagent": 3, "GFP, % of control": 58.2, "viability (ATP), % of control": 84.7, "call": "inactive"}
{"target gene": "Speer4b", "reagent": 1, "GFP, % of control": 134, "viability (ATP), % of control": 119, "call": "active"}
{"target gene": "Speer4b", "reagent": 2, "GFP, % of control": 64.9, "viability (ATP), % of control": 81.8, "call": "inactive"}
{"target gene": "Speer4b", "reagent": 3, "GFP, % of control": 218, "viability (ATP), % of control": 135, "call": "active"}
{"target gene": "Spz1", "reagent": 1, "GFP, % of control": 66.3, "viability (ATP), % of control": 63, "call": "inactive"}
{"target gene": "Spz1", "reagent": 2, "GFP, % of control": 52.5, "viability (ATP), % of control": 66.1, "call": "inactive"}
{"target gene": "Spz1", "reagent": 3, "GFP, % of control": 71.2, "viability (ATP), % of control": 66.9, "call": "inactive"}
{"target gene": "Actr8", "reagent": 1, "GFP, % of control": 83.2, "viability (ATP), % of control": 74.8, "call": "inactive"}
{"target gene": "Actr8", "reagent": 2, "GFP, % of control": 76.8, "viability (ATP), % of control": 70.2, "call": "inactive"}
{"target gene": "Cgnl1", "reagent": 1, "GFP, % of control": 62.2, "viability (ATP), % of control": 66.8, "call": "inactive"}
{"target gene": "Cgnl1", "reagent": 2, "GFP, % of control": 73, "viability (ATP), % of control": 88.3, "call": "inactive"}
{"target gene": "Cgnl1", "reagent": 3, "GFP, % of control": 47.5, "viability (ATP), % of control": 79.7, "call": "inactive"}
{"target gene": "Gdpd5", "reagent": 1, "GFP, % of control": 75.5, "viability (ATP), % of control": 91, "call": "inactive"}
{"target gene": "Gdpd5", "reagent": 2, "GFP, % of control": 90.6, "viability (ATP), % of control": 69.1, "call": "inactive"}
{"target gene": "Gdpd5", "reagent": 3, "GFP, % of control": 99.7, "viability (ATP), % of control": 52.3, "call": "inactive"}
{"target gene": "Ss18l2", "reagent": 1, "GFP, % of control": 100, "viability (ATP), % of control": 91.2, "call": "inactive"}
{"target gene": "Ss18l2", "reagent": 2, "GFP, % of control": 79.4, "viability (ATP), % of control": 73.1, "call": "inactive"}
{"target gene": "Ss18l2", "reagent": 3, "GFP, % of control": 73.1, "viability (ATP), % of control": 49.3, "call": "inactive"}
{"target gene": "Rasal1", "reagent": 1, "GFP, % of control": 96, "viability (ATP), % of control": 75.2, "call": "inactive"}
{"target gene": "Rasal1", "reagent": 2, "GFP, % of control": 117, "viability (ATP), % of control": 60.5, "call": "inactive"}
{"target gene": "Rasal1", "reagent": 3, "GFP, % of control": 76.5, "viability (ATP), % of control": 62.2, "call": "inactive"}
{"target gene": "Scgb2b26", "reagent": 1, "GFP, % of control": 87, "viability (ATP), % of control": 74.3, "call": "inactive"}
{"target gene": "Scgb2b26", "reagent": 2, "GFP, % of control": 60.6, "viability (ATP), % of control": 66.9, "call": "inactive"}
{"target gene": "Scgb2b26", "reagent": 3, "GFP, % of control": 80.4, "viability (ATP), % of control": 93.5, "call": "inactive"}
{"target gene": "Gng7", "reagent": 1, "GFP, % of control": 111, "viability (ATP), % of control": 104, "call": "inactive"}
{"target gene": "Gng7", "reagent": 2, "GFP, % of control": 111, "viability (ATP), % of control": 69.3, "call": "inactive"}
{"target gene": "Gng7", "reagent": 3, "GFP, % of control": 25.1, "viability (ATP), % of control": 48.4, "call": "inactive"}
{"target gene": "Fgb", "reagent": 1, "GFP, % of control": 105, "viability (ATP), % of control": 64.6, "call": "inactive"}
{"target gene": "Fgb", "reagent": 2, "GFP, % of control": 77.5, "viability (ATP), % of control": 60.8, "call": "inactive"}
{"target gene": "Fgb", "reagent": 3, "GFP, % of control": 50.2, "viability (ATP), % of control": 86.8, "call": "inactive"}
{"target gene": "Syt12", "reagent": 1, "GFP, % of control": 78.2, "viability (ATP), % of control": 116, "call": "inactive"}
{"target gene": "Syt12", "reagent": 2, "GFP, % of control": 111, "viability (ATP), % of control": 87.1, "call": "inactive"}
